The results in this text go back to PubChem BioAssay AID330 (DTP/NCI, 2004).

The assay has as its system P388 leukemia ip, CD2F1 mice, survival T/C. The assay is described as follows: NCI In Vivo Anticancer Drug Screen. Data for tumor model P388 Leukemia (intraperitoneal) in CD2F1 (CDF1) mice. Conditions: T/C endpoint: median survival time, higher T/C = longer survival.
Where [1] appears, read: dose: 200.0 mg/kg/injection, schedule: Q01DX005 (ip), vehicle: Klucel (hydroxypropylcellulose) (HPC).
[2] abbreviates: dose: 50.0 mg/kg/injection, schedule: Q01DX009 (ip), vehicle: water.

The list shows only some results of the screen, not a fair sample: it is rich in T/C values a quarter to a half above the control, in often repeated tests (any T/C) and in doses without a T/C. Other doses and runs of a compound stand elsewhere. T/C gives the treated animals as a percentage of the vehicle group. Some doses have a count of surviving animals in place of a T/C: the source holds a T/C of zero for them, seemingly a mark for toxic or unscored doses. Some survivor counts are full or nearly so, which does not show that the dose was tolerated: survival well below the control is almost never listed, so the zero probably covers shortened survival too. Counts of survivors are from the toxicity check (mostly the fifth day) where no day follows; animals may have died later. Schedule codes are those of the source, taken here to give the interval after Q, in days (D) or hours (H), and the number of doses after X. Additions like (4×) say how often a value occurs here. Some entries hold several experiments; the results are listed from low to high. Where survival is the endpoint, this PubChem deposit counts one and a half times the control or more as active, and values a quarter to a half above the control carry no call in these data; other NCI protocols may use other cut-offs. Some T/C values carry the count of animals alive at the toxicity check (mostly the fifth day); where none is given, no animal had died by that day.

As to `CN(C)c1ccc2nc3ccc(=O)cc-3sc2c1`, the T/C (dose: 50.0 mg/kg/injection, schedule: Q01DX009 (ip), vehicle: saline with Tween-80) is 129 % of control and the T/C (dose: 200.0 mg/kg/injection, schedule: Q01DX009 (ip), vehicle: saline with Tween-80) was 136 % of control.
In the case of `CCCCN=C1Nc2nc(=NCCCC)nc3c(Br)cc(Br)c(n23)N1`, the survivor count (dose: 7.5 mg/kg/injection, schedule: Q01DX005 (ip), vehicle: Klucel (hydroxypropylcellulose) (HPC)) is recorded as 6 of 6; the survivor count (dose: 15.0 mg/kg/injection, schedule: Q01DX005 (ip), vehicle: Klucel (hydroxypropylcellulose) (HPC)) is 6 of 6 (2×); the survivor count (dose: 30.0 mg/kg/injection, schedule: Q01DX005 (ip), vehicle: Klucel (hydroxypropylcellulose) (HPC)) is 6 of 6; the survivor count (dose: 120.0 mg/kg/injection, schedule: Q01DX005 (ip), vehicle: Klucel (hydroxypropylcellulose) (HPC)) is listed as 6 of 6; the survivor count (dose: 240.0 mg/kg/injection, schedule: Q01DX005 (ip), vehicle: Klucel (hydroxypropylcellulose) (HPC)) is on record as 0 of 6.
For the molecule `O=c1c2cnccc2cc2n1CCc1c-2[nH]c2ccccc12`, the survivor count (dose: 12.5 mg/kg/injection, schedule: Q01DX009 (ip), vehicle: saline with Tween-80) was 6 of 6.
Regarding `O=S(=O)(O)O.[NH-]CC([NH-])c1ccccc1.[Pt+2]` (centres undefined), under “dose: 25.0 mg/kg/injection, schedule: Q04DX002 (ip), vehicle: saline with Tween-80”, the survivor count is 0 of 6.
For `CC(=O)CC(=O)c1c(-c2ccccc2)[nH]c2ccccc12`, the survivor count runs as follows: (dose: 200.0 mg/kg/injection, schedule: Q04DX003 (ip), vehicle: saline + alcohol) 0 of 6; (dose: 400.0 mg/kg/injection, schedule: Q04DX003 (ip), vehicle: saline + alcohol) 0 of 6.
Turning to `C/C(=N\O)c1cc(Br)cc([N+](=O)[O-])c1O`, the survivor count under setting [1] is 1 of 6.
Take `Nc1n[n+](-c2ccccc2)no1`: the T/C is 108, 112, 113, 114 % of control (dose: 6.25 mg/kg/injection, schedule: Q01DX005 (ip), vehicle: water); 142 % of control (dose: 6.25 mg/kg/injection, schedule: Q01DX009 (ip), vehicle: water); 126 and 130 % of control (dose: 6.25 mg/kg/injection, schedule: Q03HX015 (ip), vehicle: water); 119, 122, 135, 138 % of control (dose: 12.5 mg/kg/injection, schedule: Q01DX005 (ip), vehicle: water); 141 % of control (dose: 12.5 mg/kg/injection, schedule: Q01DX009 (ip), vehicle: saline); 137 % of control (dose: 12.5 mg/kg/injection, schedule: Q01DX009 (ip), vehicle: water). The T/C is 139 and 147 % of control [4 of 6 alive] (dose: 12.5 mg/kg/injection, schedule: Q03HX015 (ip), vehicle: water); 142 [5 of 6 alive], 144, 150, 151 % of control (dose: 25.0 mg/kg/injection, schedule: Q01DX005 (ip), vehicle: water); 127 % of control (dose: 25.0 mg/kg/injection, schedule: Q03HX003 (ip), vehicle: water); 130 [5 of 6 alive], 153, 168, 180 % of control (dose: 50.0 mg/kg/injection, schedule: Q01DX005 (ip), vehicle: water); 132 % of control [5 of 6 alive] under setting [2]; 132 % of control (dose: 50.0 mg/kg/injection, schedule: Q03HX003 (ip), vehicle: water). The survivor count by setting is: under setting [2], 5 of 6 and 6 of 6; (dose: 50.0 mg/kg/injection, schedule: Q03HX015 (ip), vehicle: water) 3 of 6; (dose: 100.0 mg/kg/injection, schedule: Q01DX005 (ip), vehicle: water) 3 of 6 and 5 of 6; (dose: 100.0 mg/kg/injection, schedule: Q01DX009 (ip), vehicle: saline) 3 of 6; (dose: 100.0 mg/kg/injection, schedule: Q01DX009 (ip), vehicle: water) 0 of 6 and 2 of 6; (dose: 100.0 mg/kg/injection, schedule: Q03HX003 (ip), vehicle: water) 0 of 6. The survivor count is on record as 0 of 6 (dose: 200.0 mg/kg/injection, schedule: Q01DX001 (ip), vehicle: water) and 0 of 6 (dose: 400.0 mg/kg/injection, schedule: Q01DX001 (ip), vehicle: water).
As to `CCC(C)N(CC(C)C)CC(C)(O)CNc1cc(OC)cc2cccnc12` (centres undefined), the survivor count is recorded as 3 of 5 (dose: 100.0 mg/kg/injection, schedule: Q01DX005 (ip), vehicle: saline) and 0 of 5 (dose: 200.0 mg/kg/injection, schedule: Q01DX005 (ip), vehicle: saline).
With `C=C(CN(C)C)C(=O)c1ccc(OC)cc1`, the survivor count runs as follows: (dose: 7.5 mg/kg/injection, schedule: Q01DX005 (ip), vehicle: saline with Tween-80) 1 of 6; (dose: 15.0 mg/kg/injection, schedule: Q01DX005 (ip), vehicle: saline with Tween-80) 0 of 6; (dose: 30.0 mg/kg/injection, schedule: Q01DX005 (ip), vehicle: saline with Tween-80) 0 of 6; (dose: 60.0 mg/kg/injection, schedule: Q01DX005 (ip), vehicle: saline) 0 of 6; (dose: 120.0 mg/kg/injection, schedule: Q01DX005 (ip), vehicle: saline) 0 of 6; (dose: 240.0 mg/kg/injection, schedule: Q01DX005 (ip), vehicle: saline) 0 of 6.
As for `COc1ccc(Cc2c3cc(OC)c(OC)cc3cc[n+]2CC(=O)c2ccc(F)cc2)cc1OC`, the survivor count is, setting by setting: (dose: 100.0 mg/kg/injection, schedule: Q01DX005 (ip), vehicle: Klucel (hydroxypropylcellulose) (HPC)) 0 of 5; under setting [1], 0 of 5.
On to `NC(=O)c1ccccc1NCCc1ccccc1`, for which, under “dose: 200.0 mg/kg/injection, schedule: Q04DX003 (ip), vehicle: saline with Tween-80”, the survivor count is 6 of 6.
`CN(C)CCC(=O)c1ccc(Cl)cc1`: the survivor count (dose: 200.0 mg/kg/injection, schedule: Q01DX009 (ip), vehicle: saline) is 1 of 6.
`N=c1nc(N)nc2c3ccccc3nnn12`: the survivor count is listed as 4 of 6 (dose: 120.0 mg/kg/injection, schedule: Q01DX005 (ip), vehicle: saline with Tween-80) and 0 of 6 (dose: 240.0 mg/kg/injection, schedule: Q01DX005 (ip), vehicle: saline with Tween-80).
As for `CCN=C1C=CC(=C(c2ccc(N)cc2)c2ccc(N(CC)CC)c(C)c2)C=C1`, the T/C (dose: 6.25 mg/kg/injection, schedule: Q01DX005 (ip), vehicle: saline with Tween-80) was 126 % of control; the T/C (dose: 6.25 mg/kg/injection, schedule: Q01DX005 (ip), vehicle: saline) is 139 % of control; the T/C (dose: 12.5 mg/kg/injection, schedule: Q01DX005 (ip), vehicle: saline) is 130 % of control. The survivor count reads like this: (dose: 12.5 mg/kg/injection, schedule: Q01DX005 (ip), vehicle: saline with Tween-80) 1 of 5; (dose: 25.0 mg/kg/injection, schedule: Q01DX005 (ip), vehicle: saline with Tween-80) 0 of 5; (dose: 50.0 mg/kg/injection, schedule: Q01DX005 (ip), vehicle: saline with Tween-80) 1 of 5; (dose: 100.0 mg/kg/injection, schedule: Q01DX005 (ip), vehicle: saline with Tween-80) 0 of 5; (dose: 200.0 mg/kg/injection, schedule: Q01DX005 (ip), vehicle: saline with Tween-80) 0 of 5.
Regarding `Cc1cc(N=Nc2ccc(NC(=O)c3ccc(N)cc3)cc2C)ccc1N=Nc1ccc2cc(S(=O)(=O)O)cc(S(=O)(=O)O)c2c1`, the survivor count (dose: 400.0 mg/kg/injection, schedule: Q01DX005 (ip), vehicle: suspension in saline) is listed as 0 of 6.
As for `CC12CC(C(=O)O)C3(O)CC(C)(C1)CC(C)(C2)C3` (centres undefined) (tested in a mixture with another compound), the T/C (dose: 50.0 mg/kg/injection, schedule: Q01DX009 (ip), vehicle: Klucel (hydroxypropylcellulose) (HPC)) is 131 % of control; the T/C (dose: 100.0 mg/kg/injection, schedule: Q01DX009 (ip), vehicle: Klucel (hydroxypropylcellulose) (HPC)) is 140 % of control; the T/C (dose: 200.0 mg/kg/injection, schedule: Q01DX009 (ip), vehicle: Klucel (hydroxypropylcellulose) (HPC)) was 125 and 148 % of control. The survivor count (dose: 400.0 mg/kg/injection, schedule: Q01DX009 (ip), vehicle: Klucel (hydroxypropylcellulose) (HPC)) is given as 1 of 6.
